Library screen at single concentrations

Results are given as percent effect.
How 0% and 100% were set is not recorded. Most values in the screen are low, and negative values occur.
The compounds are a random part of those screened.
Two or more numbers in one place are separate tests of the same structure; such repeats can differ widely.

A: 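Growth of Mycobacterium tuberculosis over 3 days (7H9 medium with glucose and tyloxapol); the read-out is not stated. Compounds at 50 µM. Higher reads as more growth inhibition (inferred: compounds with an IC50 in retests scored well above the rest). About 69,000 compounds were tested under these conditions; 1.1% (about 760) showed 50% or more at least once.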
B: 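Growth of Mycobacterium tuberculosis over 4 days (cholesterol / DPPC medium with tyloxapol); the read-out is not stated. Compounds at 50 µM. The record gives no direction; compounds that gave an IC50 in retests scored well above the rest, so higher reads as more growth inhibition. About 69,000 compounds were tested under these conditions; 0.54% (about 370) showed 50% or more at least once.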

| # | structure | A | B |
|---|---|---|---|
| 1 | `COCC(C)Nc1ccc(-c2nc(Cc3ccc(F)cc3)no2)cn1` (stereo not shown) | -12.83 | -26.43 |
| 2 | `COc1ccc(CN2CCOC[C@H](OCCC(C)C)C2)cc1` | 15.73 and 57.31 | 9.276 |
| 3 | `CC(C)n1nnc(CC(=O)NCC2(c3cccc(F)c3)CCCC2)n1` | -5.307 | -21.77 and 38.13 |
| 4 | `Cc1ccc(CN2CCOC3(CCCN(C(=O)c4ccco4)C3)C2)s1.O=C(O)C(F)(F)F` (stereo not shown) | -13.46 | -18.31 |
| 5 | `CC(=O)N1CCOC(c2nc(N(C)C)ncc2-c2cccc(F)c2)C1` (stereo not shown) | -5.628 | -22.05 |
| 6 | `O=C1CN([C@@H]2CC[C@@H](NS(=O)(=O)c3ccccc3)[C@H]2O)CCN1` | -23.55 | -10.03 and -5.87 |
| 7 | `Cc1cnn(CC2CN(CC(=O)N(C)Cc3cnn(C)c3)CCO2)c1` (stereo not shown) | 1.139 | 0.164 |
| 8 | `Cc1nccc(-c2cccc(NCC(=O)N3CCc4sccc4C3)c2)n1` | 21.25 | 7.385 |
| 9 | `Cc1nc(COCc2cnc3n2CCN(CC2CCC2)C3C)cs1.O=C(O)C(F)(F)F` (stereo not shown) | 51.54 | 17.41 |
| 10 | `Cc1cccc(NC2CCN(C(=O)Nc3cn[nH]c3)CC2)n1` | 1.766 and 13.48 | -0.5111 |
| 11 | `Cn1ccnc1CNC1CCCOc2c1ccc1ccccc21` (stereo not shown) | 15.09 and 20.67 | 16.47 |
| 12 | `COc1cc2c(nn1)CCN(CC(O)COc1ccc(C#N)cc1)C2` (stereo not shown) | -1.323 and 0.864 | 0.6355 |
| 13 | `O=C(NCC(Cc1cccc(F)c1)N1CCCC1=O)c1ccccc1` (stereo not shown) | -5.12 and -13.45 | -24.79 |
| 14 | `CCOCC(O)CN1CCN(C(=O)c2cccc(CC#N)c2)CC1` (stereo not shown) | -5.209 | -7.073 |
| 15 | `c1cncc(CN2CCn3cc(CN4CCCCC4)nc3C2)c1` | -8.558 | -16.32 |
| 16 | `Cc1cnccc1CN1CC[C@@](C)(O)[C@H](Oc2ccccc2)C1` | -12.47 | 8.787 |
| 17 | `CC(C)c1cc(O)nc(C2CCCN2C(=O)C(C)(C)C)n1` (stereo not shown) | 5.766 | -41.34 |
| 18 | `CC(C)c1cc(C(=O)NCCn2nc3ccccn3c2=O)n[nH]1` | 9.119 | 1.757 |
| 19 | `CCOc1nnc(CN(Cc2ccccc2)CC(O)c2ccco2)s1` (stereo not shown) | -10.46 | -18.99 |
| 20 | `CC(C)n1ncc2c1NC(=O)CC21C(=O)Nc2c(Cl)ccc(Cl)c21` (stereo not shown) | 22.94 | 8.397 |
| 21 | `Cc1cc(C(=O)NCC2CCCO2)c(C)n1-c1cccnc1` (stereo not shown) | 12.95 | -14.32 |
| 22 | `COC(=O)N1CCCC(C(=O)N2CCCCC2)C1` (stereo not shown) | -10.12 | 17.91 |
| 23 | `Cc1ccc(-c2ncc(CN3CCN(C(=O)N(C)C)CC3)s2)o1` | -1.725 | 7.302 |
| 24 | `CCC(O)CN1CCN(C(=O)Cc2ccccc2Cl)CC1` (stereo not shown) | 16.79 | 10.53 |
| 25 | `Cc1cc(C)c(CNC(=O)NCc2nnc3n2CCC3)c(=O)[nH]1` | -32.04 | -17.07 |
| 26 | `CN1C(=O)CC2(CCNCC2)c2ccccc21` | -19.71 and -1.822 | -5.775 |
| 27 | `O=C(O)C(F)(F)F.O=C(O)C(F)(F)F.O=C(O)CN1CCCC2(CCN2Cc2cccc(F)c2)C1` (stereo not shown) | 1.04 | 3.983 |
| 28 | `Cc1cc(C(=O)N2CCCC(n3ccnc3)C2)c(C)n1C1CC1` (stereo not shown) | -10.39 | -12.79 |
| 29 | `[H][C@@]12CS(=O)(=O)C[C@]1([H])N(C(=O)Cc1ccc(CO)cc1)CCN2CC1CC1` | -14.23 | -35.67 |
| 30 | `COc1ccccc1COCC(O)CN1CCC(c2ccn[nH]2)CC1` (stereo not shown) | -18.74 | -6.203 |
| 31 | `COCCCNc1c(-c2ccc(Cl)cc2)c(=O)c1=O` | 35.61 | 21.03 |
| 32 | `CS(=O)(=O)Nc1nn(Cc2ccc(F)cc2)cc1Br` | -6.499 | 14.58 |
| 33 | `CCc1nc(CNCCn2cc(C)cn2)no1` | -49.28 and -0.4604 | -15.51 |
| 34 | `CNC(=O)c1cc2c(s1)CCN(C(=O)CCC1CCCN(C)C1)C2` (stereo not shown) | -4.695 | 11.53 |
| 35 | `O=C(CNC(=O)N(Cc1ccoc1)C1CCCCC1)N1CCCC1` | 4.553 and -12.67 | -0.9563 |
| 36 | `CCCOC1CCCN(c2nc(COC)nc3c2cnn3C)C1` (stereo not shown) | 1.415 | -13.58 |
| 37 | `CC(C)n1cnc2c(-c3cccnc3)nc(C3CCNCC3)cc21.Cl.Cl` | -29.76 | -13.69 |
| 38 | `CC(C)NC(=O)N1CCn2c(nnc2C2CCCN2)C1` (stereo not shown) | 7.458 | -23.95 |
| 39 | `CNC(=O)CN1CCOCC12CCN(Cc1ccncc1)CC2.O=C(O)C(F)(F)F.O=C(O)C(F)(F)F` | 17.17 | 4.169 |
| 40 | `O=C(NCCc1cccs1)N1CCCC2(CCC(=O)N(C3CC3)C2)C1` (stereo not shown) | -27.2 | -3.549 |
| 41 | `CC(C)C(=O)N1CCC(c2nc3c([nH]2)CCCNC3=O)CC1` | -24.09 | -6.831 |
| 42 | `[H][C@@]12COC[C@@H](CC(=O)N3CCCO3)[C@]1([H])CN(S(C)(=O)=O)C2` | 37.54 | -0.2369 |
| 43 | `Cc1cnc(C(=O)N2CCOCC2C)cn1` (stereo not shown) | 10.38 | -3.734 |
| 44 | `CC(=O)c1ccc(N2CCCC(CO)(CCc3ccccc3)C2)nc1` (stereo not shown) | 28.57 | 2.737 and 12.52 |
| 45 | `CC(C)CC(=O)N[C@H](C)c1c(-c2ccc(Cl)cc2)noc1C(=O)O.Cl` | 9.478 and -6.278 | 9.046 |
| 46 | `OCCOCCNCC1(c2ccc(F)cc2)CCOC1` (stereo not shown) | 31.64 | -4.227 |
| 47 | `Cc1cc(C)nc(C2CCN(C(=O)CO)CC2)n1` | -2.181 | 2.261 and -0.9701 |
| 48 | `CC/N=c1\nc(NCC)nc2n1C(O)(Nc1cccc(Cl)c1Cl)CS2` (stereo not shown) | -2.911 | -0.7695 |
| 49 | `CC(c1cc(F)ccc1F)N(C)C(=O)NCc1ccnc(N(C)C)c1` (stereo not shown) | 19.24 | -14.16 |
| 50 | `Cc1nc(CN2CCC(CNC(=O)C3(C#N)CCCC3)CC2)oc1C` | -14.18 and 3.629 | -1.478 |
| 51 | `O=C(COCc1ccccc1)N1CCCC(OCc2cccnc2)C1` (stereo not shown) | -13.44 | -24.8 |
| 52 | `CCC(C(=O)N(Cc1ccccn1)C1CCCCC1)n1cccn1` (stereo not shown) | 0.1609 and -12 | 5.01 |
| 53 | `CCC(CC)C(CNC(=O)Nc1ccc(OC)cc1)N1CCOCC1` (stereo not shown) | 6.592 and -1.119 | -11.65 and 2.515 |
| 54 | `Cc1cnccc1N1CCCN(C(=O)CCCc2cn[nH]c2)CC1` | 21.8 and -8.345 | 10.82 |
| 55 | `CSc1cc2c(cc1NC(=O)NCC(=O)N(C)C)OCCO2` | -11.12 | -18.78 |
| 56 | `[H][C@@]12COC[C@H](C(=O)N3CCCO3)[C@]1([H])CN(Cc1c(C)noc1C)C2` | -5.572 | 7.39 and -1.409 |
| 57 | `Cn1cnnc1C1CCCN(C(=O)NCc2cc[nH]n2)C1` (stereo not shown) | 17.2 | -14.08 |
| 58 | `c1cc(NCc2cscn2)cc(OCCN2CCCCC2)c1` | 17.38 | 13.83 |
| 59 | `CCC(CC)(CNC(C)=O)NC(C)c1ccccc1` (stereo not shown) | 20.64 and 1.09 | 14.64 |
| 60 | `COc1ccc(Br)c(C(=O)NC(CC(=O)O)c2cccs2)c1` (stereo not shown) | -8.416 | -1.497 |
| 61 | `CN(C)c1cccc(C2CCCN2CCCN2CCOC2=O)c1` (stereo not shown) | 18.67 and -4.019 | 3.519 |
| 62 | `O=C(Nc1ccccc1)N1CC(C(=O)N2CCCC2)C2(CCOCC2)C1` (stereo not shown) | 9.613 | -2.358 |
| 63 | `COc1ccc(Cl)cc1CC(=O)N1CCN(CC(C)(C)O)CC1` | 1.626 | 5.361 |
| 64 | `Cc1c(C(=O)N(C)c2ccccc2)cccc1N(C)S(C)(=O)=O` | 3.017 | 5.288 |
| 65 | `CC(=O)NCCOc1c(Cl)cccc1Cl` | -2.815 | -13.66 |
| 66 | `Cc1nccn1C1CCCN(C(=O)c2ccc3c(c2)nc(C)n3C)C1` (stereo not shown) | 1.267 | -12.76 |
| 67 | `CCn1cc(S(=O)(=O)N(CCc2ccccc2)Cc2ccn(C)n2)cn1` | 19.18 | 4.375 |
| 68 | `CCCn1nccc1C(=O)Nc1ncc(C)s1` | -18.8 and 14.15 | -3.274 |
| 69 | `Cc1nn(CC(=O)N2CCN(Cc3cn(C)nc3C)CC2)cc1Br` | -1.408 | -21.41 |
| 70 | `Cc1cc(C)n(-c2ccccc2NC(=O)NCCCN(C)S(C)(=O)=O)n1` | 11.87 | 3.321 |

8 of the entries, repeated:

| structure | A | B |
|---|---|---|
| `Cc1nccn1C1CCCN(C(=O)c2ccc3c(c2)nc(C)n3C)C1` (stereo not shown) | 1.267 | -12.76 |
| `CNC(=O)c1cc2c(s1)CCN(C(=O)CCC1CCCN(C)C1)C2` (stereo not shown) | -4.695 | 11.53 |
| `Cc1c(C(=O)N(C)c2ccccc2)cccc1N(C)S(C)(=O)=O` | 3.017 | 5.288 |
| `Cc1ccc(CN2CCOC3(CCCN(C(=O)c4ccco4)C3)C2)s1.O=C(O)C(F)(F)F` (stereo not shown) | -13.46 | -18.31 |
| `Cc1nc(COCc2cnc3n2CCN(CC2CCC2)C3C)cs1.O=C(O)C(F)(F)F` (stereo not shown) | 51.54 | 17.41 |
| `O=C(NCC(Cc1cccc(F)c1)N1CCCC1=O)c1ccccc1` (stereo not shown) | -5.12 and -13.45 | -24.79 |
| `c1cc(NCc2cscn2)cc(OCCN2CCCCC2)c1` | 17.38 | 13.83 |
| `CN1C(=O)CC2(CCNCC2)c2ccccc21` | -19.71 and -1.822 | -5.775 |

Data taken from ChEMBL document CHEMBL3988442, “University of Dundee, Small-Polar-MMV Screening Library” (2021).